The text below walks through data of patent US20020151459A1, “Methods for identifying compounds useful for inhibiting farnesyl diphosphate synthase” (Merck & Co., Inc., priority 2000, published 2002).

SMILES strings stand for the structures. Like-named read-outs stand apart in the source and are kept apart here.

The test system of this assay is other enzymes in the mevalonate pathway (conversion of MVA to GGPP). Particulars: high micromolar concentrations, enzymes converting MVA to GGPP other than FPP synthase.

In the case of `NCCCC(O)(P(=O)(O)O)P(=O)(O)O` [alendronate, 4-amino-1-hydroxybutylidene-1,1-bisphosphonic acid monosodium trihydrate], the “inhibition of any other enzyme in the mevalonate pathway (in words)” value is given as “do not inhibit” (listed as alendronate monosodium trihydrate) and “does not inhibit” (monosodium trihydrate).
